## Primary screen of a compound library

Amino acid sequences for entries named in this document (tags omitted).
UniProt P9WPC5, whole entry: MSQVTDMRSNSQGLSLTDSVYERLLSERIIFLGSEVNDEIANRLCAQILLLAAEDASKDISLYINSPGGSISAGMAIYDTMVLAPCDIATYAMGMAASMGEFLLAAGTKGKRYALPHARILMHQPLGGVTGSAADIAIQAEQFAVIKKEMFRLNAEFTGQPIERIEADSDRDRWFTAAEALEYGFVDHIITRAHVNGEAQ
UniProt P9WPC3, whole entry partner: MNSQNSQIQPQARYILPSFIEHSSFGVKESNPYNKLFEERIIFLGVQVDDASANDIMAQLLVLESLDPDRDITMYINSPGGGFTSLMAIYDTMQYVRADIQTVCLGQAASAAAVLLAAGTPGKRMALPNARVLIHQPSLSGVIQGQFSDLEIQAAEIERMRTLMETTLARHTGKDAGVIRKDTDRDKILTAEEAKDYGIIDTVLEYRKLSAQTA
UniProt I6X8D2, whole entry: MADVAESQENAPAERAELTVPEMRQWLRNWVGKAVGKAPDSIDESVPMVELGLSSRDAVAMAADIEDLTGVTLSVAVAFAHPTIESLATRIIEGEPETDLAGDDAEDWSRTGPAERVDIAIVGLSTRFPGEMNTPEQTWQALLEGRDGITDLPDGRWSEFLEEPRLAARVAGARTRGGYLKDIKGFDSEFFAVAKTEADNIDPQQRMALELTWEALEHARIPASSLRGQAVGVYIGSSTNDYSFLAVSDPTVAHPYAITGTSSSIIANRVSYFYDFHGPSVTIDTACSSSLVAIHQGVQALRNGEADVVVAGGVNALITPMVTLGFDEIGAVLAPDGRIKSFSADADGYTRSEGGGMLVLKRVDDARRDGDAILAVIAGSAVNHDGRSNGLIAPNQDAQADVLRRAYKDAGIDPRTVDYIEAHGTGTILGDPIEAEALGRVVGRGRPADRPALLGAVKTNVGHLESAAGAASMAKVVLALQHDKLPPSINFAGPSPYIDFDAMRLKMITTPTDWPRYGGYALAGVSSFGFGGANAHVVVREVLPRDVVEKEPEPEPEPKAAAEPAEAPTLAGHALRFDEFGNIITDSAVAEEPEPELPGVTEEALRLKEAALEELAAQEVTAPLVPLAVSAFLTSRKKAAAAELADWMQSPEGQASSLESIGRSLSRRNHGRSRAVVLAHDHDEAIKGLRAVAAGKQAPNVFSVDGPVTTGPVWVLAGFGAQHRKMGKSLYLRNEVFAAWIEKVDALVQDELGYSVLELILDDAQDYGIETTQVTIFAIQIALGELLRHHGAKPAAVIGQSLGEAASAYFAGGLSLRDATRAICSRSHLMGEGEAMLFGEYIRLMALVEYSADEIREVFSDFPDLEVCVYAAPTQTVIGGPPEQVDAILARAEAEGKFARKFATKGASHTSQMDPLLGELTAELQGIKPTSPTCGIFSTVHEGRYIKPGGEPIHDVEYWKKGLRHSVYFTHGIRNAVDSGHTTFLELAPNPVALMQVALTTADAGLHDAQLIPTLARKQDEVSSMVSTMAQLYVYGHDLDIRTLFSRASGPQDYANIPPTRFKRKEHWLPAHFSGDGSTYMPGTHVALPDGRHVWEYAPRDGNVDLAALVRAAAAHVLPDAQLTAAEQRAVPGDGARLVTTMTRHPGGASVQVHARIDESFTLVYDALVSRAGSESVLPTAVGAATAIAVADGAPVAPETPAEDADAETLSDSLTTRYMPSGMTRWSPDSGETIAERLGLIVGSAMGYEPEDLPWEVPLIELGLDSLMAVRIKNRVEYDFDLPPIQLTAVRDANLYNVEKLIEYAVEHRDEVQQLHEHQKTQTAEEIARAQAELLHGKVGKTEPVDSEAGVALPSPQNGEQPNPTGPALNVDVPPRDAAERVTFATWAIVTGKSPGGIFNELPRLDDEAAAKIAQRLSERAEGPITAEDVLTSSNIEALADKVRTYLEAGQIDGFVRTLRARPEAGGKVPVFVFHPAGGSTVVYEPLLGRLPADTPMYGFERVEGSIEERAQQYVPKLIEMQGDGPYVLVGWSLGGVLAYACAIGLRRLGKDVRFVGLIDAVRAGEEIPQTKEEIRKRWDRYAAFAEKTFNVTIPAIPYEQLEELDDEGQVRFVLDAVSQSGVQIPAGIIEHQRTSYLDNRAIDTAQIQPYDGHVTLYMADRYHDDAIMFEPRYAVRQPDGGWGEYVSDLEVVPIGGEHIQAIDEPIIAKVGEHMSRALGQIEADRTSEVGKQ

Source: ChEMBL document CHEMBL3988442, “University of Dundee, Small-Polar-MMV Screening Library” (2021).

Leishmania in macrophages: 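Cell assay of Leishmania donovani living inside macrophages; the read-out is not stated. Concentration: 30 µM. The record gives no direction; compounds that gave an IC50 in retests scored well above the rest, so higher reads as stronger inhibition. Size under these conditions: about 69,000 compounds, about 1,000 of them at 50% or above in at least one test.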
Toxoplasma: 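Assay of Toxoplasma gondii numbers, read through their beta-galactosidase reporter with a colour substrate. Compounds at 10 µM. Higher reads as fewer parasites (inferred from which compounds were picked for retests). About 67,000 compounds were tested under these conditions; 0.38% (about 260) showed 50% or more at least once.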
ClpP1P2: 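ClpP1P2, Mycobacterium tuberculosis (UniProt P9WPC5 and UniProt P9WPC3). Protease assay of ClpP1P2, read by the AMC dye that it sets free. Concentration: 50 µM. Higher reads as stronger inhibition, judged from the few compounds that gave an IC50. Most other retested compounds had strongly negative values. Size under these conditions: about 69,000 compounds, about 10 of them at 50% or above in at least one test.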
T. brucei: 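Whole-parasite assay of Trypanosoma brucei over 72 hours; the read-out is not stated. Compounds at 30 µM. The record gives no direction; compounds that gave an IC50 in retests scored well above the rest, so higher reads as stronger inhibition. Values scatter widely below zero; nearly all retest evidence comes from the higher of the two concentrations used. Size under these conditions: about 64,000 compounds, about 940 of them at 50% or above in at least one test.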
Pks13 thioesterase: 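Polyketide synthase Pks13, Mycobacterium tuberculosis (UniProt I6X8D2). Enzyme assay of the thioesterase domain of polyketide synthase 13; the read-out is not stated. Concentration: 30 µM. Higher reads as stronger inhibition (inferred from which compounds were picked for retests). About 67,000 compounds were tested under these conditions; 0.46% (about 300) showed 50% or more at least once.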

Each number is a percent effect as filed. How 0% and 100% were set is not recorded. Most values in the screen are low, and negative values occur. Compounds were drawn at random from those tested, without regard to their results. A dash means the value is not listed here; it may have been measured.

- [H][C@]12CC[C@]([H])(CN(S(=O)(=O)c3ccc(C#N)cc3)C1)N(CCOC)C2=O | Leishmania in macrophages: -6.836%; Toxoplasma: -11.1%; T. brucei: -35.87%
- Cc1nc(C)n(CC2CCCN2CCCc2ccccc2)n1 (configuration not stated) | Leishmania in macrophages: 26.2%; Toxoplasma: -1.533%; ClpP1P2: -3.602%; T. brucei: -35.6%; Pks13 thioesterase: -11.71%
- CN(Cc1ccco1)C[C@H]1OC[C@@H]2CCN(Cc3cccnc3)C[C@@H]21 | ClpP1P2: -4.855%; Pks13 thioesterase: -14.09%
- Cc1ccc(C(=O)NS(=O)(=O)c2cccc3cnccc23)c(=O)[nH]1 | Leishmania in macrophages: 10.32%; Toxoplasma: 4.847%; ClpP1P2: 6.187%; T. brucei: 13.86%; Pks13 thioesterase: -5.959%
- CCS(=O)(=O)CC(=O)N1CCCC(c2noc(C(C)C)n2)C1 (configuration not stated) | Leishmania in macrophages: 10.94%; Toxoplasma: -2.835%; ClpP1P2: -1.076%; T. brucei: -34.57%; Pks13 thioesterase: 19.12%
- O=C(c1ccncc1F)N1CC[C@@H]2OC(COCC3CC3)CC[C@@H]21 (some centres not stated) | ClpP1P2: -14.57%; Pks13 thioesterase: -17.33%
- CCOc1ccccc1CSc1nnc(CC2CCS(=O)(=O)C2)n1C (configuration not stated) | Leishmania in macrophages: 7.747%; Toxoplasma: -0.2658%; ClpP1P2: 12.01%; T. brucei: -37%; Pks13 thioesterase: -11.66%
- CNC(=O)C1(c2cnccn2)CCCN1C(=O)c1ccccc1C (configuration not stated) | Leishmania in macrophages: 2.344%; Toxoplasma: 7.661%; ClpP1P2: -6.694%; T. brucei: -16.63%; Pks13 thioesterase: -4.385%
- [H][C@]12CC[C@]([H])(CN(c3cnccn3)C1)N(C(=O)c1cnc(C)cn1)C2 | Leishmania in macrophages: 11.07%; Toxoplasma: 11.11%; T. brucei: -10.93%
- O=C(NC1CCN(C2CC2)C1)c1cn(-c2ccc(F)cc2)nn1 (configuration not stated) | Leishmania in macrophages: -27.36%; Toxoplasma: 8.147%; ClpP1P2: 2.141%; T. brucei: -13.21%; Pks13 thioesterase: -39.34%
- CC(=O)c1cccc(OCC(=O)N(CC(C)C)C2CCN(C)CC2)c1 | Leishmania in macrophages: 14.07%; Toxoplasma: 7.005%; ClpP1P2: -4.584%; T. brucei: -16.87%; Pks13 thioesterase: -5.894%
- O=C(Cc1ccc2c(c1)OCO2)N1CCCN(c2ccccc2)CC1 | Leishmania in macrophages: -1.527%; Toxoplasma: -11.28%; ClpP1P2: -5.328%; T. brucei: -25.79%; Pks13 thioesterase: -13.28%
- [H][C@]12C[C@@H](C(=O)NCCOC)CO[C@@]1([H])CCN(Cc1cccs1)C2 | Leishmania in macrophages: 6.83%; Toxoplasma: -15.09%; T. brucei: -48.12%
- CC1(C)CNC(=O)c2nc(CCN3CCC(C(N)=O)CC3)[nH]c2C1 | Leishmania in macrophages: 19.45%; Toxoplasma: 11.69%; ClpP1P2: -12.62%; T. brucei: -27.22%; Pks13 thioesterase: -2.439%
- O=S(=O)(N1CCC(n2cccc2)CC1)N1CCCC1c1ccco1 (configuration not stated) | Leishmania in macrophages: -0.4157%; Toxoplasma: 15.4%; ClpP1P2: -13.91%; T. brucei: -94.2%; Pks13 thioesterase: 21.82%
- CC(C)N(C)C(=O)c1ccc(Cl)c(NC(=O)CCN2C(=O)CCC2=O)c1 | Leishmania in macrophages: 35.7%; Toxoplasma: -1.212%; ClpP1P2: 5.398%; T. brucei: -1.98%; Pks13 thioesterase: -18.88%
- CN(Cc1cccs1)C(=O)CN1CCOC(Cn2cncn2)C1 (configuration not stated) | Leishmania in macrophages: -2.453%; Toxoplasma: 1.474%; ClpP1P2: -26.98%; T. brucei: -2.469%; Pks13 thioesterase: -25.11%
- O=C(Cn1ccnc1)N1C[C@@H]2CC[C@H](Oc3cccc(F)c3)[C@@H]2C1 | ClpP1P2: 3.343%; Pks13 thioesterase: 4.543%
- O=C(NCCCOc1cccnc1)c1cn(Cc2ccccc2F)nn1 | Leishmania in macrophages: -21%; Toxoplasma: 0.8107%; ClpP1P2: -9.684%; T. brucei: 9.269%; Pks13 thioesterase: -6.62%
- CCn1nc(C)c(CN(CCCOC)Cc2ccccn2)c1C.O=C(O)CC(O)(CC(=O)O)C(=O)O | Leishmania in macrophages: 0.7375%; Toxoplasma: 8.323%; T. brucei: -0.7195%
- O=C1NC2(CCN(C(=O)c3ccc(Cl)cc3)CC2)CC1c1ccccc1 (configuration not stated) | Leishmania in macrophages: -10.07%; Toxoplasma: 21.84%; ClpP1P2: -12.64%; T. brucei: -37.19%; Pks13 thioesterase: -9.478%
- O=C(N1CCOCC1)N1CCc2ncnc(NC3CCC3)c2CC1 | ClpP1P2: 4.623%; Pks13 thioesterase: -20.64%
- Fc1ccccc1C(CNc1ccncn1)N1CCCC1 (configuration not stated) | Leishmania in macrophages: 13.69%; Toxoplasma: -11.69%; ClpP1P2: -14.48%; T. brucei: -34.48%; Pks13 thioesterase: -11.37%
- CSc1ccc(C2CC(=O)Nc3c2c(=O)[nH]n3C(C)C)cc1 (configuration not stated) | Leishmania in macrophages: 40.89%; Toxoplasma: 8.763%; ClpP1P2: -4.471%; T. brucei: -0.3732%; Pks13 thioesterase: -38.84%

Repeated from the top, 2 entries:

| compound | Leishmania in macrophages | Toxoplasma | ClpP1P2 | T. brucei | Pks13 thioesterase |
|---|---|---|---|---|---|
| `[H][C@]12CC[C@]([H])(CN(S(=O)(=O)c3ccc(C#N)cc3)C1)N(CCOC)C2=O` | -6.836% | -11.1% | - | -35.87% | - |
| `Cc1nc(C)n(CC2CCCN2CCCc2ccccc2)n1` (configuration not stated) | 26.2% | -1.533% | -3.602% | -35.6% | -11.71% |